Results deposited as PubChem BioAssay AID743121 (NCATS, 2013)
Aim: 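Knock-downs that sensitise breast cancer cells to camptothecin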 (primary screen). Cells: MDA-MB-231 cells, a human breast cancer line. Reagent: single siRNA against human genes, 20 nM siRNA (0.8 pmol per well). Time to read-out: 120 h (drug added 48 h after transfection, read 72 h later). Conditions: camptothecin 20 nM (about EC30) for 72 h; vehicle 0.1% DMSO in parallel plates. Measurement: 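Cell viability by ATP luminescence (CellTiter-Glo) as % of non-targeting siRNA wells, and the log2 ratio of viability without drug over viability with camptothecin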. Direction: log2 vehicle/camptothecin viability: higher = stronger sensitisation to camptothecin; viability with camptothecin and viability without drug: higher = more viable cells. Hit rule: 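Active genes have an RSA gene-level p-value below 0.001, computed from the ratios of their separate siRNAs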.
This is an unselected part of about 26,000 reagents tested. Of all reagents, 167 (0.63%) were called active. 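Calls are per gene from RSA p-values that are not deposited; an individual active-marked siRNA can sensitise only weakly.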 A number with no mark means an inactive call.

| log2 vehicle/camptothecin viability | viability with camptothecin (% of control) | viability without drug (% of control) | Target gene | PubChem SID |
| --- | --- | --- | --- | --- |
| -0.165 | 81 | 72.2 | ARSF | SID164354232 |
| -0.079 | 79.8 | 75.6 | ARSF | SID164354234 |
| -0.188 | 63.1 | 55.4 | ARSF | SID164354235 |
| 0.28 | 47.2 | 57.3 | ARSF | SID164354236 |
| -0.102 | 105 | 97.5 | CD2 | SID164357034 |
| -0.483 | 95.5 | 68.3 | CD2 | SID164357036 |
| -0.359 | 137 | 107 | CD2 | SID164357037 |
| -0.485 | 58.5 | 41.8 | CD2 | SID164357038 |
| -0.403 | 122 | 92.4 | KIF22 | SID164373010 |
| -0.386 | 68.1 | 52.1 | KIF22 | SID164373011 |
| -0.0602 | 89.7 | 86.1 | KIF22 | SID164373012 |
| -0.36 | 8.75 | 6.82 | KIF22 | SID164373013 |
| -0.169 | 89.9 | 79.9 | MED24 | SID164406939 |
| -0.158 | 81.7 | 73.2 | MED24 | SID164406941 |
| -0.251 | 63.1 | 53.1 | MED24 | SID164406942 |
| -0.264 | 97.9 | 81.5 | MED24 | SID164406945 |
| 0.242 | 76.4 | 90.4 | KIF17 | SID164495062 |
| -0.0439 | 81.7 | 79.2 | KIF17 | SID164495064 |
| -0.351 | 49 | 38.4 | KIF17 | SID164495066 |
| -0.379 | 130 | 100 | KIF17 | SID164495067 |
| -0.0955 | 107 | 100 | SKI | SID164388115 |
| -0.186 | 52.2 | 45.9 | SKI | SID164388117 |
| -0.179 | 82.1 | 72.5 | SKI | SID164388118 |
| -0.0618 | 89.1 | 85.4 | OR2B2 | SID164538700 |
| 0.648 | 31.7 | 49.6 | OR2B2 | SID164538704 |
| -0.309 | 112 | 90.8 | OR2B2 | SID164538705 |
| -0.199 | 57.5 | 50.1 | OR2B2 | SID164538706 |
| 0.445 | 3.42 | 4.65 | CLCN7 | SID164358698 |
| -0.406 | 65.1 | 49.1 | CLCN7 | SID164358699 |
| 0.141 | 88.6 | 97.8 | CLCN7 | SID164358700 |
| 0.105 | 43.6 | 46.9 | SCTR | SID164387242 |
| -0.0128 | 42.1 | 41.7 | SCTR | SID164387243 |
| 0.392 | 69.3 | 91 | SCTR | SID164387245 |
| 0.0983 | 39.9 | 42.7 | SCTR | SID164387247 |
| -0.081 | 72 | 68.1 | UBQLNL | SID164573004 |
| -0.0891 | 22.2 | 20.9 | UBQLNL | SID164573005 |
| 0.535 | 44.8 | 64.9 | UBQLNL | SID164573006 |
| -0.0715 | 88 | 83.7 | UBQLNL | SID164573008 |
| 0.0109 | 62.1 | 62.5 | KCNIP4 | SID164536183 |
| -0.0738 | 79.5 | 75.5 | KCNIP4 | SID164536184 |
| -1.31 | 56.5 | 22.8 | KCNIP4 | SID164536187 |
| -0.119 | 106 | 97.8 | KCNIP4 | SID164536191 |
| 0.261 | 47.3 | 56.7 | CASP2 | SID164356564 |
| -0.413 | 85.7 | 64.4 | CASP2 | SID164356565 |
| -0.386 | 74.1 | 56.7 | CASP2 | SID164356569 |
| -0.506 | 46.5 | 32.8 | CASP2 | SID164356572 |
| 0.0635 | 86.3 | 90.2 | PRMT6 | SID164483261 |
| -0.416 | 79 | 59.2 | PRMT6 | SID164483262 |
| -0.21 | 39.9 | 34.5 | PRMT6 | SID164483263 |
| -0.279 | 86.6 | 71.3 | PRMT6 | SID164483264 |
| -0.137 | 69.9 | 63.6 | TXNDC2 | SID164543557 |
| 0.159 | 37.7 | 42.1 | TXNDC2 | SID164543560 |
| -0.0241 | 110 | 109 | TXNDC2 | SID164543568 |
| 0.3 | 67.9 | 83.6 | TXNDC2 | SID174315989 |
| 0.387 | 19.5 | 25.5 | CD5L | SID164357082 |
| 0.497 | 28.1 | 39.6 | CD5L | SID164357083 |
| -0.392 | 94.9 | 72.3 | CD5L | SID164357084 |
| -0.498 | 86.3 | 61.1 | CD5L | SID164357086 |
| 0.139 | 84.8 | 93.4 | FPR1 | SID164365336 |
| 0.188 | 87.6 | 99.9 | FPR1 | SID164365338 |
| -0.364 | 24.4 | 18.9 | FPR1 | SID164365340 |
| -0.427 | 86.8 | 64.6 | FPR1 | SID164365341 |
| -0.521 | 48.3 | 33.7 | ADCY5 | SID164352325 |
| 0.089 | 93.4 | 99.4 | ADCY5 | SID164352327 |
| 0.101 | 74.2 | 79.6 | ADCY5 | SID164352328 |
| -0.237 | 97.8 | 83 | ADCY5 | SID164352329 |
| -0.224 | 70.1 | 60 | MORC4 | SID164532793 |
| -0.161 | 99.8 | 89.3 | MORC4 | SID164532794 |
| -0.0487 | 61.7 | 59.6 | MORC4 | SID164532796 |
| 0.598 | 57 | 86.2 | MORC4 | SID164532799 |

Entries above whose target name begins with K or k (12):
| log2 vehicle/camptothecin viability | viability with camptothecin (% of control) | viability without drug (% of control) | Target gene | PubChem SID |
| --- | --- | --- | --- | --- |
| -0.403 | 122 | 92.4 | KIF22 | SID164373010 |
| -0.386 | 68.1 | 52.1 | KIF22 | SID164373011 |
| -0.0602 | 89.7 | 86.1 | KIF22 | SID164373012 |
| -0.36 | 8.75 | 6.82 | KIF22 | SID164373013 |
| 0.242 | 76.4 | 90.4 | KIF17 | SID164495062 |
| -0.0439 | 81.7 | 79.2 | KIF17 | SID164495064 |
| -0.351 | 49 | 38.4 | KIF17 | SID164495066 |
| -0.379 | 130 | 100 | KIF17 | SID164495067 |
| 0.0109 | 62.1 | 62.5 | KCNIP4 | SID164536183 |
| -0.0738 | 79.5 | 75.5 | KCNIP4 | SID164536184 |
| -1.31 | 56.5 | 22.8 | KCNIP4 | SID164536187 |
| -0.119 | 106 | 97.8 | KCNIP4 | SID164536191 |
